From article doi:10.1101/2023.09.12.557426
These are yes or no findings as the source states them, for the method shown. Binding seen in cells or lysates may run through a third protein. Some results given as binding are weak or reduced against the parent protein; the word gives no strength.

Protein sequences, listed by entry. Tags and fused reporters are not part of them. Residues count along the entry.
UniProt P52948, residues 1-880: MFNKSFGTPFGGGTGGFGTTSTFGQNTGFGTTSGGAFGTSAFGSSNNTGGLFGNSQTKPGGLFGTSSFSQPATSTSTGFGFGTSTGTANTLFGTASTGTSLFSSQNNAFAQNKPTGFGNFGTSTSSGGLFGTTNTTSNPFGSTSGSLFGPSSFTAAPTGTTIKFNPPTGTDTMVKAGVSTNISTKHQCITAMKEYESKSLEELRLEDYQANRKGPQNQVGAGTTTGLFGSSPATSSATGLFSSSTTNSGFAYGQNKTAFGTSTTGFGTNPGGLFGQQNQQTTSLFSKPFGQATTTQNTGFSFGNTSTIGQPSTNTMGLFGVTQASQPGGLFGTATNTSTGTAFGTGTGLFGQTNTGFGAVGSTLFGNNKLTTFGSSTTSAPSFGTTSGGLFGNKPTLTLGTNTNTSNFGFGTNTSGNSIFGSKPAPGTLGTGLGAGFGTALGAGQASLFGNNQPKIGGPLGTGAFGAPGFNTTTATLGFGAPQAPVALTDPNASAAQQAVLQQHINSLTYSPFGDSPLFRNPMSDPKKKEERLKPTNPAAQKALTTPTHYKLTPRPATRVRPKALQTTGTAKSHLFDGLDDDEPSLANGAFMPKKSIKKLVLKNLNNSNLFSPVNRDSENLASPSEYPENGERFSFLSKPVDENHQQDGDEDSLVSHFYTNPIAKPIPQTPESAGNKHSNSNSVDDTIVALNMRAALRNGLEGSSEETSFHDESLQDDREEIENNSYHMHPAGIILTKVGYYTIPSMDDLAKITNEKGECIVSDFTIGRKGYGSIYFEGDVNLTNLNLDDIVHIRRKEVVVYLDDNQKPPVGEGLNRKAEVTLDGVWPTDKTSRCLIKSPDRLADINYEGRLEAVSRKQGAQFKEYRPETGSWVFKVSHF

Biological target: human Nup98 of HeLa cells (human (endogenous in HeLa)) (UniProt P52948)
Test: pull-down

B1: human Gle2 from HeLa lysate (protein, UniProt P78406 1-368)
chain: MSLFGTTSGFGTSGTSMFGSATTDNHNPMKDIEVTSSPDDSIGCLSFSPPTLPGNFLIAGSWANDVRCWEVQDSGQTIPKAQQMHTGPVLDVCWSDDGSKVFTASCDKTAKMWDLSSNQAIQIAQHDAPVKTIHWIKAPNYSCVMTGSWDKTLKFWDTRSSNPMMVLQLPERCYCADVIYPMAVVATAERGLIVYQLENQPSEFRRIESPLKHQHRCVAIFKDKQNKPTGFALGSIEGRVAIHYINPPNPAKDNFTFKCHRSNGTNTSAPQDIYAVNGIAFHPVHGTLATVGSDGRFSFWDKDARTKLKTSEQLDQPISACCFNHNGNIFAYASSYDWSKGHEFYNPQKKNYIFLRNAAEELKPRNKK
With B1 as the binder, how does the binding read?
Its binding is “binds”.
